{"source": "PubChem BioAssay AID602252", "about": "(Broad Institute, 2012)", "note": "Out of some 300,000 compounds screened, about 2,700 (0.9%) were called active. Inconclusive results, whose numbers are uncertain, are shown with a selection of clear calls.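 The calls were made as follows: active = mean inhibition of at least 30% with at least half of replicates also reaching 30%; inconclusive = no clear call, values can overlap the other calls; inactive = the rest.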", "data": [{"target": "Golgi-associated PDZ and coiled-coil motif-containing protein (Homo sapiens) (UniProt Q9HD26)", "experiment": "blockade of CAL PDZ-reporter peptide interaction – biochemical, fluorescence polarization, untagged CAL PDZ, HTS, primary screen (AID 602252);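 also: 0% = DMSO neutral control and 100% = excess unlabeled competitor peptide PRC23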", "details": "purified CAL PDZ, TMR-peptide fluorescence polarization, 1 h; at 24.9 µM; stronger effect = higher value", "values": [{"smiles": "O=C(/C=C/c1ccco1)N1CCN(S(=O)(=O)c2ccccc2)CC1", "inhibition": "inconclusive: 59.3%"}, {"smiles": "COC(=O)c1cn(C(C)C(=O)NCc2ccco2)c2ccccc12", "note": "(stereo not given)", "inhibition": "inconclusive: 53.2%"}, {"smiles": "Oc1cc2c(cc1O)C(c1ccccc1)CNCC2", "note": "(stereo not given)", "inhibition": "inactive: -2.03%"}, {"smiles": "O=C(NCc1nc2ccccc2[nH]1)C1=C[C@@H](c2ccc(C(F)(F)F)cc2)C[C@@H](OCc2ccc(CO)cc2)O1", "inhibition": "inactive: -0.906%"}, {"smiles": "Cc1ccc(-n2c(C)nnc2SCC(=O)N(C)C2CCS(=O)(=O)C2)cc1", "note": "(stereo not given)", "inhibition": "inconclusive: 54.7%"}, {"smiles": "O=C(CSc1nnc(-c2cccnc2)n1Cc1ccco1)N1CCc2ccccc21", "inhibition": "inconclusive: 2.67%"}, {"smiles": "Cc1nnc(SCC(=O)Nc2nccs2)s1", "inhibition": "active: 79.1%"}, {"smiles": "CC12CCC(C(=O)N3CCCCC3)(CC1=O)C2(C)C", "note": "(stereo not given)", "inhibition": "inconclusive: 39.4%"}, {"smiles": "Cc1nc(NC(=O)/C=C/c2ccccc2)sc1C(=O)Nc1ccccc1Cl", "inhibition": "inconclusive: 35%"}, {"smiles": "O=C1C(Cl)=C(N2CCOCC2)C(=O)N1c1cccc(Cl)c1", "inhibition": "inactive: -0.24%"}, {"smiles": "S=C1NCN(Cc2ccco2)CN1", "inhibition": "inactive: -4.54%"}, {"smiles": "CC(C(=O)Nc1ccc(Cl)cc1Cl)N1C(=O)NC2(CCCCCCC2)C1=O", "note": "(stereo not given)", "inhibition": "inconclusive: 51.1%"}, {"smiles": "CC(=O)c1cccc(NC(=O)COc2nsnc2N2CCOCC2)c1", "inhibition": "inactive: -18.5%"}, {"smiles": "CC(=O)Nc1ccc2nc(SCC(=O)Nc3ccc(N4CCOCC4)c(Cl)c3)sc2c1", "inhibition": "inconclusive: 47.1%"}, {"smiles": "CCOC(=O)Nc1ccc(NS(=O)(=O)c2ccc(C)cc2)cc1", "inhibition": "inconclusive: 44.1%"}, {"smiles": "NNC(=O)C1CC(O)CN1S(=O)(=O)c1ccc2ccccc2c1", "note": "(stereo not given)", "inhibition": "inconclusive: 60.7%"}, {"smiles": "COc1ccc(N(C(=O)c2snc(C(N)=O)c2N)C(C(=O)NCc2ccccc2)c2ccc(O)cc2)cc1", "note": "(stereo not given)", "inhibition": "active: 51.4%"}, {"smiles": "COC(CNC(=O)CNC(=S)N(Cc1ccccc1)Cc1cccnc1)OC", "inhibition": "active: 84.3%"}, {"smiles": "COCC(=O)Nc1ccc(N2CCOCC2)c(S(=O)(=O)Nc2ccc(OC)cc2)c1", "inhibition": "inconclusive: 41.8%"}, {"smiles": "O=C(Nc1ccc(OCC(F)(F)C(F)F)c(C(F)(F)F)c1)c1ccc(Cl)cc1", "inhibition": "inconclusive: 35.8%"}, {"smiles": "O=C(N/N=C/c1sc2ccccc2c1O)c1cccc2ccccc12", "inhibition": "inactive: 0.731%"}, {"smiles": "CCN(C(=O)COC(=O)CCC(=O)c1cccs1)c1ccccc1", "inhibition": "inactive: 3.37%"}, {"smiles": "CC/C(=N\\NC(=O)c1ccc2c(c1)OCO2)C12CC3CC(CC(C3)C1)C2", "inhibition": "inactive: -0.863%"}, {"smiles": "O=S(=O)(Nc1nc2ccccc2nc1NCCO)c1cccc(Cl)c1", "inhibition": "inconclusive: -7.56%"}, {"smiles": "O=C(O)CCn1c(SCc2ccccc2)nc2ccccc21", "inhibition": "inactive: -3.71%"}, {"smiles": "COc1ccccc1N=Cc1nc(-c2ccccc2)oc1OC(C)=O", "inhibition": "inconclusive: 49.7%"}, {"smiles": "Cc1ccc(-c2csc(=S)n2CC(=O)OCC(=O)NCc2ccco2)cc1", "inhibition": "inconclusive: 32.6%"}, {"smiles": "CCOC(=O)c1cnc(SCc2ccc(C(C)(C)C)cc2)nc1N", "inhibition": "inconclusive: 49.1%"}, {"smiles": "COc1cccc2c1C(=O)c1c(O)c3c(c(O)c1C2=O)CC(O)(C(C)=O)CC3OC1CC(N(C)C)C(O)C(C)O1", "note": "(stereo not given)", "inhibition": "inactive: 10.6%"}, {"smiles": "CC(C)c1ccc(N2C(=O)/C(=C/N(C)C)SC2=S)cc1", "inhibition": "inactive: -16.5%"}, {"smiles": "COc1ccc(NC(=O)C(NS(=O)(=O)c2ccc3c(c2)CCCN3C(C)=O)C(C)C)c(OC)c1", "note": "(stereo not given)", "inhibition": "inconclusive: 40%"}, {"smiles": "CCOC(=O)c1c(/N=C/C2C(=O)CC(C)(C)CC2=O)sc2c1CCCC2", "inhibition": "active: 79.2%"}, {"smiles": "C=CCn1ccc(=NC=C(C#N)C#N)c2ccccc21", "inhibition": "inactive: -2.24%"}, {"smiles": "O=C(Cc1cccs1)N(Cc1ccco1)C1(C(=O)NC2CCCC2)CCCCC1", "inhibition": "inconclusive: 45.7%"}, {"smiles": "CCSc1nc(-c2ccccc2)cc(=O)[nH]1", "inhibition": "inactive: -4.08%"}, {"smiles": "CCOc1ccccc1Nc1cc2n(c(=O)n1)CCc1cc(OC)c(OC)cc1-2", "inhibition": "inactive: -3.96%"}, {"smiles": "Cc1cccc(N2CCN(C(=O)CSc3nnnn3C3CC3)CC2)c1C", "inhibition": "inconclusive: 33.6%"}, {"smiles": "O=C(Cn1c(=O)oc2ccccc21)N1CCN(S(=O)(=O)c2ccccc2)CC1", "inhibition": "inconclusive: -0.125%"}, {"smiles": "CCOC(=O)C1=C(C)Nc2sc(C(=O)c3ccc(F)cc3)c(N)c2C1c1ccc(C(=O)OC)cc1", "note": "(stereo not given)", "inhibition": "inactive: 1.76%"}, {"smiles": "CN(C)CCC(C(=O)c1ccccc1)c1ccccn1", "note": "(stereo not given)", "inhibition": "active: 85.4%"}, {"smiles": "COc1cc(C(=O)NC2CCN(C)CC2)ccc1Nc1ncc2c(n1)N(Cc1ccccc1)CCC(=O)N2C", "inhibition": "inactive: -1.93%"}, {"smiles": "COc1cc(OC)cc(C(=O)NCC(=O)N2CCCCCCC2)c1", "inhibition": "active: 59.5%"}, {"smiles": "COc1cccc(-c2cc3c(-n4cccc4)ncnc3o2)c1", "inhibition": "inconclusive: 42.1%"}, {"smiles": "Cn1c(CC(=O)NNC(=O)c2ccc(F)cc2F)nc2ccccc21", "inhibition": "inconclusive: -3.69%"}, {"smiles": "O=S(=O)(Cc1ccccc1)N=Nc1c(O)[nH]c2ccc(Br)cc12", "inhibition": "active: 81.5%"}, {"smiles": "CCN1CCN(C(=O)C(C)Oc2ccc(S(=O)(=O)N3CCCC3)cc2C(N)=O)CC1", "note": "(stereo not given)", "inhibition": "inconclusive: 37.5%"}, {"smiles": "CC(C)(C)c1ccc(C(=O)Nc2ccc(N3CCOCC3)cc2)cc1", "inhibition": "inactive: -0.744%"}, {"smiles": "COc1ccccc1Nc1nc(N)nc(CSc2nncn2C)n1", "inhibition": "inconclusive: -3.72%"}, {"smiles": "Cc1ccc(C(C)C)cc1S(=O)(=O)Nc1cccnc1", "inhibition": "inactive: -5.91%"}, {"smiles": "c1ccc(CNc2c3ccccc3nc3ccccc23)cc1", "inhibition": "inactive: -8.14%"}, {"smiles": "O=S(=O)(Nc1cc(S(=O)(=O)N2CCOCC2)ccc1NCC1CCCO1)c1ccccc1F", "note": "(stereo not given)", "inhibition": "inconclusive: 48.7%"}, {"smiles": "COc1ccc(S(=O)(=O)N2CCCN(CCC(=O)Nc3cccc(C(F)(F)F)c3)CC2)cc1", "inhibition": "inconclusive: 38.7%"}, {"smiles": "COC(=O)CSc1nnc(CNc2nc(-c3ccccc3)cs2)n1C", "inhibition": "inconclusive: 60.3%"}, {"smiles": "CNC(=O)c1cc(Nc2nnc(C)c3ccccc23)ccc1OC", "inhibition": "active: 35.3%"}, {"smiles": "COc1ccc(Oc2nc(C)nc3c2oc2ccccc23)cc1", "inhibition": "inconclusive: 50.2%"}, {"smiles": "COCCN1C(=O)c2ccccc2C(C(=O)Nc2ccc3c(c2)OCCO3)C1c1ccc(F)cc1", "note": "(stereo not given)", "inhibition": "inconclusive: -1.34%"}, {"smiles": "C(=Cc1c[nH]c2ccccc12)c1nccc2ccccc12", "inhibition": "inactive: -2.82%"}, {"smiles": "CC(NC(=O)c1ccco1)c1ccc2c(c1)OCCO2", "note": "(stereo not given)", "inhibition": "inconclusive: -2.23%"}, {"smiles": "O=C1NC(=O)/C(=C\\c2ccc(Sc3ccc(Cl)cc3)o2)N1", "inhibition": "inactive: -3.97%"}, {"smiles": "O=C(NC1CCCCC1)N1CCN(c2ccccc2)CC1", "inhibition": "inconclusive: 52.1%"}]}]}
